Results are given in words; binding and its absence hold for the method and conditions named. Binding seen in cells or lysates may run through a third protein. Some entries that bind do so weakly or less than the wild type.

Protein sequences, listed by entry. Tags and fused reporters are not part of them.
UniProt P84022: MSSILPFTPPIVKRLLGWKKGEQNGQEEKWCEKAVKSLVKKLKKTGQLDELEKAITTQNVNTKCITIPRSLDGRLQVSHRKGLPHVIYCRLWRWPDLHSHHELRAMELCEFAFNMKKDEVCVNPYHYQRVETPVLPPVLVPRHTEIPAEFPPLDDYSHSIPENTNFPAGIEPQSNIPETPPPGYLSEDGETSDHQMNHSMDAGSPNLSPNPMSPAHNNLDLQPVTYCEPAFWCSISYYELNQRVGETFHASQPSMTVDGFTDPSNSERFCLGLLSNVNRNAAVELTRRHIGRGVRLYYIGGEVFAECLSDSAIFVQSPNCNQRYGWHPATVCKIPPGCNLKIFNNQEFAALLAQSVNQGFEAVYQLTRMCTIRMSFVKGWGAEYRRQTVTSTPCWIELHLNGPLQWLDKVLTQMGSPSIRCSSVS

This note sets out measurements from article PMC11300487, “C-phycocyanin reinforces autophagy to block pulmonary fibrogenesis by inhibiting lncIAPF biogenesis” (Archives of Pharmacal Research, 2024).

The assay concerns the target T1, activating transcription factor 3 (human (endogenous in MRC-5)) (UniProt P18847).
T1 sequence: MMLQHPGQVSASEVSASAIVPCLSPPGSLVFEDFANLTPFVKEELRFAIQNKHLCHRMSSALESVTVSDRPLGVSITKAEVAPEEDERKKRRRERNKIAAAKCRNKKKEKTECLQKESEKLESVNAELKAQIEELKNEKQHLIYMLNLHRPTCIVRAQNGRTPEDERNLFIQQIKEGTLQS
As to the kind of experiment: co-IP; MRC-5 cell lysate precipitated with rabbit anti-ATF3 (rabbit IgG as control) and Protein A/G, 4 °C overnight; cells treated with TGFβ1 or TGFβ1 and C-PC.

“transcription factor Smad3 (from UniProt P84022 1-425)”: the binding entry is “binds”.
